Some test systems named below: FBXO4 (human); FBXO6 (human); FBXO7 (human); FCGR2B (human); FCGR3A (human); FCRL1 (human); FCRL2 (human); FDFT1 (human); FES (human); FEZ1 (human); FGF1 (human); FGF19 (human); FGF21 (human); FGL1 (human); FHL3 (human); FKBP11 (human); FKBP2 (human); FLJ11171 (human); FLJ11506 (human).
Assay in all cases: protein microarray (ProtoArray v5.0), streptavidin-Alexa Fluor 647
Common to all, as to details: 3'-biotin; 20 mM Tris (pH 7.5), 5 mM MgCl2, 100 mM KCl, 0.1% Tween-20, A/T-rich and random oligonucleotide blockers; temperature not stated; high values mean tight binding

The target in the next experiment is T1, FKBPL (UniProt Q9UIM3).
T1 sequence: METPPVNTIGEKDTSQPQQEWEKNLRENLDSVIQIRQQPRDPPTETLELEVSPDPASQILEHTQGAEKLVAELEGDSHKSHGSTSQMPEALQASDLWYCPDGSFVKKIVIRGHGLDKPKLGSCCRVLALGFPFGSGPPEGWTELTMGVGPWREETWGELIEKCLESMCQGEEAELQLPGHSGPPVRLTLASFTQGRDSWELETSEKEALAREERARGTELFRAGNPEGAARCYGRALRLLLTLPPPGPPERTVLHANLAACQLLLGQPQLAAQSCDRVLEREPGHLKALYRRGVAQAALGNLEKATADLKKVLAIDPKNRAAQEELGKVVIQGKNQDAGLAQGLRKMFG

Drawing on PMC5996148, this text covers binding signal for one sequence.

Values joined by “and” are separate entries in the source; they are usually repeats but may differ in a detail not shown here. Identical values can stand only once. The list shows a part of the results. For some assays here: The exact form of the protein is not confirmed.

On to “GGGAGGCTGAGGCAGG [G4-1 biotinylated (PQS2)]”, for which the binding signal in the experiment on FBXO4 (human) was -0.345 z-score; in the experiment on FBXO6 (human) it was -0.337 z-score; in the experiment on FBXO7 (human), -0.241 z-score; in the experiment on FCGR2B (human), -0.325 z-score; with FCGR3A (human) it was -0.314 z-score; in the experiment on FCRL1 (human) it was -0.298 z-score. Besides, the binding signal in the experiment on FCRL2 (human) was -0.328 z-score; with FDFT1 (human), -0.334 z-score and -0.329 z-score; in the experiment with FES (human) it was -0.234 z-score; with FEZ1 (human), -0.315 z-score; in the experiment on FGF1 (human) it was -0.279 z-score; in the experiment with FGF19 (human), -0.305 z-score. The binding signal is -0.284 z-score in the experiment on FGF21 (human); -0.327 z-score in the experiment with FGL1 (human); -0.297 z-score with FHL3 (human); -0.31 z-score with FKBP11 (human); -0.32 z-score in the experiment on FKBP2 (human); -0.346 z-score with FKBPL. The binding signal with FLJ11171 (human) is -0.256 z-score and -0.291 z-score; with FLJ11506 (human) it was -0.308 z-score.
